# A weaker result is weaker than the reference pair of the same experiment.
# Amino acid sequences for entries named in this document (tags omitted). Residues count along the entry.
# UniProt Q9UBB5, 151-411: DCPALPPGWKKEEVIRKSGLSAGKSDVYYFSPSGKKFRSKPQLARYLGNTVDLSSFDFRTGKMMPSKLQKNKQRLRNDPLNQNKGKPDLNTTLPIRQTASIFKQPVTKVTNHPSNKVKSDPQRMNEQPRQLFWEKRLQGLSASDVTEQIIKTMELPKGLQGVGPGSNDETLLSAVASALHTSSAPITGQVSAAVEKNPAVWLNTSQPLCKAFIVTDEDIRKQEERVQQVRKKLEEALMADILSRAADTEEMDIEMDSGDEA
# Target: His10-MBD2 (UniProt Q9UBB5)
# Assay: QCM
# Conditions: 500 nM DNA, both strands (M.SssI), 350 mM NaCl, 0.1% Triton X-100 (pH and temperature of BB not stated), 30 min, QCM 5th overtone, recombinant protein, residues 151-411, protein details: N-terminal His10
sequence,measurement,setting,value
CAGGCAGATGCGCAGCACCAAGCAGAGAGGCCAGGTGCAG (double strand) [Mal1C*pG],binding result,"notable binding only at MBD2 >239 ng/cm2, 5-methyl-C at the CpG, top strand C11, BB: 50 mM Tris",binds more weakly
CAGGCAGATGCGCAGCACCAAGCAGAGAGGCCCGGTGCAGGATCCCAGGCCAGAACCAGGCCTGGCTCAGTGGAGCAGGAAGGGGCAGGC (double strand) [Mal2C*pG-close],binding result,"threshold MBD2 density ~159 ng/cm2, 5-methyl-C at all CpGs, top strand C11, C33, BB: 50 mM Tris",binds more weakly
CAGGCAGATGCGCAGCACCAAGCAGAGAGGCCAGGTGCAGGATCCCAGGCCAGAACCAGGCCTGGCTCAGTGGAGCCGGAAGGGGCAGGC (double strand) [Mal2C*pG-far],binding result,"threshold MBD2 density ~159 ng/cm2, 5-methyl-C at all CpGs, top strand C11, C77, BB: 50 mM Tris",binds more weakly

# Reference: publication PMC9478954
